PubChem BioAssay AID504808 – Drosophila RNAi Screening Center – 2011

Screen: 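Genes whose loss lifts activity of an E2F-responsive reporter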 (primary screen)
Cells: Drosophila S2 cells
Reagent: long dsRNA against Drosophila genes
Detection: 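Firefly luciferase driven by E2F sites, normalised to Renilla luciferase on the same minimal promoter, measured by plate reader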
Direction: E2F firefly: higher = more E2F reporter activity; Renilla normaliser: higher = more normaliser reporter signal
Rule for the call: 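a knock-down counted as active when the firefly/Renilla E2F signal rose above 50%, a threshold chosen arbitrarily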
The deposit covers about 21,000 reagents; shown is an unselected part of those that have a named target and a result. Over the whole deposit, 18 (0.084%) are marked active. 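Raw counts without plate normalisation, one of two replicates; the ratio scores behind the calls were not deposited.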 Unmarked entries are inactive. A plus sign joins genes that one reagent is predicted to hit. Not stated in the record: the amount of reagent, the time to read-out.

Snmp1 (Sensory neuron membrane protein 1) [DRSC16168] → E2F firefly, rep 1 = 99523; Renilla normaliser, rep 1 = 5001
CG13280 [DRSC02253] → E2F firefly, rep 1 = 90169; Renilla normaliser, rep 1 = 4550
Arp3 (Actin-related protein 3) [DRSC09669] → E2F firefly, rep 1 = 92729; Renilla normaliser, rep 1 = 3962
GLS (Glutaminase) [DRSC07261] → E2F firefly, rep 1 = 143; Renilla normaliser, rep 1 = 27
CG7798 [DRSC07047] → E2F firefly, rep 1 = 1.50e5; Renilla normaliser, rep 1 = 5543
Sdb (SAXO downstream of blistered) [DRSC06272] → E2F firefly, rep 1 = 88723; Renilla normaliser, rep 1 = 3809
Sdb (SAXO downstream of blistered) [DRSC06273] → E2F firefly, rep 1 = 95449; Renilla normaliser, rep 1 = 4319
Sdb (SAXO downstream of blistered) [DRSC07155] → E2F firefly, rep 1 = 2945; Renilla normaliser, rep 1 = 193
CG33964 + CG13175 [DRSC06300] → E2F firefly, rep 1 = 1.05e5; Renilla normaliser, rep 1 = 4257
CG33964 + CG13175 [DRSC06301] → E2F firefly, rep 1 = 96337; Renilla normaliser, rep 1 = 4076
CG33964 + CG13175 [DRSC07184] → E2F firefly, rep 1 = 1.05e5; Renilla normaliser, rep 1 = 4809
Brca2 (BRCA2, DNA repair associated) [DRSC04219] → E2F firefly, rep 1 = 99932; Renilla normaliser, rep 1 = 4470
Brca2 (BRCA2, DNA repair associated) [DRSC04220] → E2F firefly, rep 1 = 1.23e5; Renilla normaliser, rep 1 = 5138
CG5388 [DRSC15789] → E2F firefly, rep 1 = 1.27e5; Renilla normaliser, rep 1 = 6778
CG14069 [DRSC02372] → E2F firefly, rep 1 = 1.35e5; Renilla normaliser, rep 1 = 4974
CG2962 [DRSC18247] → E2F firefly, rep 1 = 7995; Renilla normaliser, rep 1 = 824
CG9826 [DRSC04570] → E2F firefly, rep 1 = 1.05e5; Renilla normaliser, rep 1 = 4042
lic (licorne) [DRSC20347] → E2F firefly, rep 1 = 8092; Renilla normaliser, rep 1 = 892
frma (fra mauro) [DRSC18297] → E2F firefly, rep 1 = 8242; Renilla normaliser, rep 1 = 820
E(spl)m4-BFM (Enhancer of split m4, Bearded family member) [DRSC16992] → E2F firefly, rep 1 = 97162; Renilla normaliser, rep 1 = 6105
CG34300 [DRSC13977] → E2F firefly, rep 1 = 68264; Renilla normaliser, rep 1 = 2470
CG9822 [DRSC04568] → E2F firefly, rep 1 = 97101; Renilla normaliser, rep 1 = 4346
CG16998 [DRSC10235] → E2F firefly, rep 1 = 1.14e5; Renilla normaliser, rep 1 = 4547
CG14252 [DRSC14747] → E2F firefly, rep 1 = 1.18e5; Renilla normaliser, rep 1 = 5570
CG18477 + CG31780 [DRSC01955] → E2F firefly, rep 1 = 1.02e5; Renilla normaliser, rep 1 = 4295
temp (tempura) [DRSC18271] → E2F firefly, rep 1 = 1900; Renilla normaliser, rep 1 = 944
GstE14 (Glutathione S transferase E14) [DRSC06881] → E2F firefly, rep 1 = 98250; Renilla normaliser, rep 1 = 4500
Ucp4A (Uncoupling protein 4A) [DRSC19996] → E2F firefly, rep 1 = 2.54e5; Renilla normaliser, rep 1 = 7518
Cog1 (Component of oligomeric golgi complex 1) [DRSC15661] → E2F firefly, rep 1 = 74202; Renilla normaliser, rep 1 = 3474
mRpL18 (mitochondrial ribosomal protein L18) [DRSC06142] → E2F firefly, rep 1 = 1.02e5; Renilla normaliser, rep 1 = 3654
Hpr1 [DRSC12296] → E2F firefly, rep 1 = 66045; Renilla normaliser, rep 1 = 3074
CR42546 (pseudo) [DRSC03711] → E2F firefly, rep 1 = 1.00e5; Renilla normaliser, rep 1 = 4942
Smg5 (Smg5 nonsense mediated mRNA decay factor) [DRSC03124] → E2F firefly, rep 1 = 57889; Renilla normaliser, rep 1 = 3582
CG7730 [DRSC10909] → E2F firefly, rep 1 = 64455; Renilla normaliser, rep 1 = 3976
CG42512 + CG32573 [DRSC19532] → E2F firefly, rep 1 = 2.46e5; Renilla normaliser, rep 1 = 7134
CG42512 + CG32573 [DRSC19906] → E2F firefly, rep 1 = 1.61e5; Renilla normaliser, rep 1 = 6502

Reprinted from the listing for reference:
GstE14 (Glutathione S transferase E14) [DRSC06881] → E2F firefly, rep 1 = 98250; Renilla normaliser, rep 1 = 4500
Ucp4A (Uncoupling protein 4A) [DRSC19996] → E2F firefly, rep 1 = 2.54e5; Renilla normaliser, rep 1 = 7518
Cog1 (Component of oligomeric golgi complex 1) [DRSC15661] → E2F firefly, rep 1 = 74202; Renilla normaliser, rep 1 = 3474
mRpL18 (mitochondrial ribosomal protein L18) [DRSC06142] → E2F firefly, rep 1 = 1.02e5; Renilla normaliser, rep 1 = 3654
